# Measured values from patent publication US20250262271A1 (ARIZONA BOARD OF REGENTS ON BEHALF OF THE UNIVERSITY OF …, published 2025).
# Results are given in words; binding and its absence hold for the method and conditions named. In cells and extracts the contact can be indirect. Some entries that bind do so weakly or less than the wild type. Where a sequence is shown, tags or fusion partners need not be part of it.
# T1: Gtr1-myc (Saccharomyces cerevisiae) (UniProt Q00582)
# T1 sequence (looked up): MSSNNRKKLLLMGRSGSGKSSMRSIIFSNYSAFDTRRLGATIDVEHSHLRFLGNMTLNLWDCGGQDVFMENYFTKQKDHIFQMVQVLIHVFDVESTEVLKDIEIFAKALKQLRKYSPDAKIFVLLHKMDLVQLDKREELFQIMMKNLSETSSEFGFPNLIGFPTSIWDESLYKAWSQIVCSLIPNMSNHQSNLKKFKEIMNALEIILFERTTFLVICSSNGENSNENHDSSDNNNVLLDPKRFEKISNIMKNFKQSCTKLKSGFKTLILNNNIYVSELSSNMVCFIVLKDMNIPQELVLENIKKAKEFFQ
# B1: GFP-Ait1 (other)
# chain: MVRLNHAASYFMPIFCSTRPHIVILSALFSISLFSLFYASSELLLHQYDDPLMFKPNSQDYFRTFLLGLFSPFLYYFLKTFLFNINQRFLILNLIVDFPINDVFMLLILIGLAYPQVQDHEGGTIKHKECSWHIIPRQAYIFGISWALGEFTICIIGNLFNYQEIADPNINSGFTHQESANTYCNNNDMSHNDDCGCSTEYRPNVVDRSDITLSKCIEVRNDSSSISNNVYSSEYHPIKPLRSSSSTYGSIRQQPHENKKQLHVPDNSQDDTIIMMNPIDNSLKLTTLDTGDLSFPIDEEQPILKKSFGYTWAVPNENTQNTTKSFTPIKRFIAFSTAYQLVTGLLLMILVVGSNIMLTIGESLILSMYFVYVRGHEGLFTPVVNYFGSRTISNFILCVIIPFISLNFLINTSIYLRRELDDWFNNSQGEFEDDDENTISKRVATNQEYQHPLSANYISMDSPDVINSSPGHFGMNSGQLLGNTTLYYGSLNGDDDDMTNDSALLRFCKKLVKNWRALARNDSFVLGVMVSWSLLVFVTGILSTVYI
# notes: Expressed in S. cerevisiae (W303) and immunopurified from DSP-crosslinked, digitonin-treated lysate; also called Ait1-GFP; GFP-tagged Ydl180w; not shown: GFP tag
# Target: T1, Gtr1-myc (Saccharomyces cerevisiae)
# Test: co-immunoprecipitation, Western blot
binder,measurement,value
B1,binding,binds
